{
  "sequences": {"note": "Chains of the proteins cited; added tags and fusions are not shown.", "UniProt O95166": "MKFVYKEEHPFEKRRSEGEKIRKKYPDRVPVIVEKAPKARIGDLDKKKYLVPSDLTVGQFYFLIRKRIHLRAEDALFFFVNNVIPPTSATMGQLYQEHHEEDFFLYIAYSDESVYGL"},
  "source": "paper doi:10.1101/2022.10.04.510822",
  "about": "(bioRxiv, 2022)",
  "binders": {"B1": {"name": "WSTF, endogenous in IMR90 (protein, UniProt Q9UIG0 1-1483)", "chain": "MAPLLGRKPFPLVKPLPGEEPLFTIPHTQEAFRTREEYEARLERYSERIWTCKSTGSSQLTHKEAWEEEQEVAELLKEEFPAWYEKLVLEMVHHNTASLEKLVDTAWLEIMTKYAVGEECDFEVGKEKMLKVKIVKIHPLEKVDEEATEKKSDGACDSPSSDKENSSQIAQDHQKKETVVKEDEGRRESINDRARRSPRKLPTSLKKGERKWAPPKFLPHKYDVKLQNEDKIISNVPADSLIRTERPPNKEIVRYFIRHNALRAGTGENAPWVVEDELVKKYSLPSKFSDFLLDPYKYMTLNPSTKRKNTGSPDRKPSKKSKTDNSSLSSPLNPKLWCHVHLKKSLSGSPLKVKNSKNSKSPEEHLEEMMKMMSPNKLHTNFHIPKKGPPAKKPGKHSDKPLKAKGRSKGILNGQKSTGNSKSPKKGLKTPKTKMKQMTLLDMAKGTQKMTRAPRNSGGTPRTSSKPHKHLPPAALHLIAYYKENKDREDKRSALSCVISKTARLLSSEDRARLPEELRSLVQKRYELLEHKKRWASMSEEQRKEYLKKKREELKKKLKEKAKERREKEMLERLEKQKRYEDQELTGKNLPAFRLVDTPEGLPNTLFGDVAMVVEFLSCYSGLLLPDAQYPITAVSLMEALSADKGGFLYLNRVLVILLQTLLQDEIAEDYGELGMKLSEIPLTLHSVSELVRLCLRRSDVQEESEGSDTDDNKDSAAFEDNEVQDEFLEKLETSEFFELTSEEKLQILTALCHRILMTYSVQDHMETRQQMSAELWKERLAVLKEENDKKRAEKQKRKEMEAKNKENGKVENGLGKTDRKKEIVKFEPQVDTEAEDMISAVKSRRLLAIQAKKEREIQEREMKVKLERQAEEERIRKHKAAAEKAFQEGIAKAKLVMRRTPIGTDRNHNRYWLFSDEVPGLFIEKGWVHDSIDYRFNHHCKDHTVSGDEDYCPRSKKANLGKNASMNTQHGTATEVAVETTTPKQGQNLWFLCDSQKELDELLNCLHPQGIRESQLKERLEKRYQDIIHSIHLARKPNLGLKSCDGNQELLNFLRSDLIEVATRLQKGGLGYVEETSEFEARVISLEKLKDFGECVIALQASVIKKFLQGFMAPKQKRRKLQSEDSAKTEEVDEEKKMVEEAKVASALEKWKTAIREAQTFSRMHVLLGMLDACIKWDMSAENARCKVCRKKGEDDKLILCDECNKAFHLFCLRPALYEVPDGEWQCPACQPATARRNSRGRNYTEESASEDSEDDESDEEEEEEEEEEEEEDYEVAGLRLRPRKTIRGKHSVIPPAARSGRRPGKKPHSTRRSQPKAPPVDDAEVDELVLQTKRSSRRQSLELQKCEEILHKIVKYRFSWPFREPVTRDEAEDYYDVITHPMDFQTVQNKCSCGSYRSVQEFLTDMKQVFTNAEVYNCRGSHVLSCMVKTEQCLVALLHKHLPGHPYVRRKRKKFPDRLAEDEGDSEPEAVGQSRGRRQKK"}},
  "biological_target": "HA-GABARAP (IMR90, stably expressed) (human) (UniProt O95166)",
  "assay": "affinity purification with mass spectrometry",
  "note": "These are yes or no findings as the source states them, for the method shown. Binding seen in cells or lysates may run through a third protein. Here binding means that the protein was enriched with, or labelled near, the bait; the list need not be complete.",
  "data": [
    {"binder": "B1", "values": [
      {"measurement": "binding", "result": "binds"}
    ]}
  ]
}
